In patent US20040236075A1:
These are yes or no findings as the source states them, for the method shown. Some entries that bind do so weakly or less than the wild type.

Molecular target: T1, recombinant human IL-22 (human) (UniProt Q9GZX6)
T1 sequence (looked up): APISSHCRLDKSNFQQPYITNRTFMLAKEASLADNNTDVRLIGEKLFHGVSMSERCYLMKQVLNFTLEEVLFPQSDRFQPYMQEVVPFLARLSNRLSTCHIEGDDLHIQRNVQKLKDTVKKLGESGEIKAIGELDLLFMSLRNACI
Experiment: ELISA: plates coated with recombinant human IL-22, IL-22BP-Ig (10% supernatant) detected with anti-mouse IgG3 peroxidase

- binding: binds
B1: IL-22BP-Ig (Fc fusion, UniProt Q969J5-2 22-231, looked up, not shown: a dimerising Fc or GST)
chain: TQSTHESLKPQRVQFQSRNFHNILQWQPGRALTGNSSVYFVQYKIYGQRQWKNKEDCWGTQELSCDLTSETSDIQEPYYGRVRAASAGSYSEWSMTPRFTPWWETKIDPPVMNITQVNGSLLVILHAPNLPYRYQKEKNVSIEDYYELLYRVFIINNSLEKEQKVYEGAHRAVEIEALTPHSSYCVVAEIYQPMLDRRSQRSEERCVEIP
